The exact form of at least one protein or probe is not confirmed. At least one verdict was read from the data and is not stated in words by the source. Where a protein sequence is shown, tags need not be part of it.
Target: T1, MdbZIP44 (Malus domestica 'Oregon Spur Delicious') (UniProt A0A498J4E9)
T1 sequence (looked up, limits assumed): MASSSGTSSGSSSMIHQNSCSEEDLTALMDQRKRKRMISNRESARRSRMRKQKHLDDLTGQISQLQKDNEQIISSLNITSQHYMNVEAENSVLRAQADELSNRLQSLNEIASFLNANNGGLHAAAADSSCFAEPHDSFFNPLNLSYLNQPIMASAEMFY
Experiment: EMSA
Settings: unlabeled same-sequence probe competes; Binding 25°C, 30 min; 6% native PAGE in 0.5x TBE, 4°C, 1 h; binding buffer, salt and pH not stated; recombinant protein; protein details: His (pET-32a); label: 5'-biotin

“AAATGGACACGTGGGCAGGGA (double strand) [Mdα-GP2 promoter G-box probe (assigned to Mdα-GP2-G1)]”: binds.

— publication PMC11079487
